Results published in patent US20100325744A1.
These are yes or no findings as the source states them, for the method shown. Some results given as binding are weak or reduced against the parent protein; the word gives no strength.

What was measured:
[1] = target: T1, Bet v 1 (birch (as 'Birch pollen antigen Bet v 1')) (UniProt P15494); assay: gel filtration fractions read in radio immuno assay with 125I-labelled Bet v 1 and Protein G Sepharose
T1 sequence (125I-labelled (chloramine-T method) where used as tracer, looked up): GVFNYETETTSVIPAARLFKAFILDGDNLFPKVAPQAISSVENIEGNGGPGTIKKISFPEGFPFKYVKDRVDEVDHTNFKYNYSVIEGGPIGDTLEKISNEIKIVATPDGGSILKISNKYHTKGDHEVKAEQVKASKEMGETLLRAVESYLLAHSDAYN

[2] = target: T1, Bet v 1 (birch (as 'Birch pollen antigen Bet v 1')); assay: crosslinking radio immuno assay, Bet v 1 Sepharose and 125I-labelled Bet v 1
[3] = target: T1, Bet v 1 (birch (as 'Birch pollen antigen Bet v 1')); assay: summary of the results (radio immuno assay of Example 49)
[4] = target: T1, Bet v 1 (birch (as 'Birch pollen antigen Bet v 1')); assay: radio immuno assay, antibody on Protein G Sepharose, 125I-labelled Bet v 1

Measured: binding

B1: Betv1-HG (antibody, V domains shown)
VH: EVQLQQSGAELVKPGASVKLSCTASGFNIKDTYIHWVKQRPEQGLEWVGRIDPATGNTRYDPKFQGKATITADTSSNTAYLQLSSLTSEDTAVYYCASFRPGYALDYWGQGTSVTVSS
VL: DIVMTQSHKFMSTSVGDRVSFTCKASQDVFTAVAWYQQKPGQSPKLLIYWASTRRTGVPDRFTGSGSGTDYTLTISSVQAEDLALYYCQQHFSTPPTFGGGTKLEIK
binds: all assays above

B2: Betv1-IgG1 (antibody, not shown: a dimerising Fc or GST)
heavy: B1 VH
light: B1 VL
binds: [2] | [4]
